The target of assay [1] is T1, GST-HpaB_(111-160) (Xanthomonas campestris pv. campestris) (UniProt B0RX82).
T1 sequence: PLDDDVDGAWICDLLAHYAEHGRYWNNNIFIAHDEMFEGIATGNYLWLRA
As to the kind of experiment: pull-down; GST or GST-fused HpaB derivatives from soluble E. coli lysate immobilised on MagneGST particles; incubated with E. coli lysates of 6×His-tagged prey 30 min at room temperature or overnight at 4°C; 20 mM Tris, 150 mM NaCl, 0.05% Triton-100, pH 8.0; immunoblot with anti-His and anti-GST; only the target purified.

Assay [2] addresses T2, GST-HpaB_(137-160) (Xanthomonas campestris pv. campestris) (UniProt B0RX82).
T2 sequence: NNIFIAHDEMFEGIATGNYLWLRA
Described as above.

Assay [3] deals with T3, GST-HpaB_(85-160) (Xanthomonas campestris pv. campestris) (UniProt B0RX82).
T3 sequence: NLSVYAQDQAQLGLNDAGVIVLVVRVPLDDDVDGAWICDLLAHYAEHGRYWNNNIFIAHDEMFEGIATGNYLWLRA
The assay is described as above.

Assay [4] deals with GST-HpaB (Xanthomonas campestris pv. campestris). As to the kind of experiment: pull-down; chaperone release assay: GST-fused HpaB derivatives immobilised on MagneGST particles, incubated with 6×His-tagged T3E to form the complex, unbound protein removed; then 1 h at room temperature with 150 μM ATP, with or without 1 μg purified 6×His-HrcN; supernatant and particles immunoblotted. On the technique in general: A western blot detects proteins with antibodies after separation by electrophoresis.

Results are given in words; binding and its absence hold for the method and conditions named. In cells and extracts the contact can be indirect. Binding can be weak; no strength is given. Tags and fused reporters may be left off the sequences shown.

On to “6×His-HpaA (Xanthomonas campestris pv. campestris)”, for which the binding result in assay [1] is on record as “binds”; in assay [2], “binds weakly”; in assay [3] it was “binds”.

As for “Trx-6×His-HpaB (Xanthomonas campestris pv. campestris)”, the binding entry is “binds” in assay [1], “no binding” in assay [2] and “binds” in assay [3].

“6×His-AvrBs1 (Xanthomonas campestris pv. campestris)”: the binding result in assay [1] was “binds”; in assay [2], “no binding”; in assay [3] it was “binds”.

Regarding “6×His-HpaB_(1-144) (Xanthomonas campestris pv. campestris) (domain or fragment)”, the values for the binding result in assay [1], in assay [2] and in assay [3] were “binds”, “no binding” and “binds”, respectively.

B1: 6×His-AvrAC (protein, UniProt Q4UWF4 1-536)
chain: MDKNLNLWDMSTFIQQYGALTADHPTHTPEDSPQTVPSPRSSSAHSPEIQELRSLQETRPARLGARSQSRSSKHGLQQCSSSPSDESFRLHAELAAWCERVETKPSLLAKLGCCAAPPVVGDHREQRREAMERIMRCLDAGQAGTQLTLRDLNLSQLPPGLHRLAHLRDLDVADNVNLTRLPEDLSLCKHLERINADGCSIAALPSKIGALKNLSEISLAFNELRTLPDSIGQCSSLTTIVVPGCKINKLPASLANLTQLKKLDVAANIELSELSPHMNLDDVAVHSTQTRLGLMHRIFKAPTFDPETRQRLSYQASALRDRWAALSHHLSPQARARVDQMREGASTTLSSQDHKASTAWKTATEKVSSWAEEGAPITLDRIFKLNQLLLPEGDDDNDPIGGQLRKVGIQAAPSNTWTECRYPPPETLKDEMAKFSGWLEHSEQQAHARDALGHIEFAAQLHQRLVSLHPFDDANGRTARLAMDWALQRHGLPPAPPVGEASRLPASFLGGKRVSPEKVVLETLEGIATVMNQVHQ
Turning to B1, the binding entry in assay [4] was “binds”.

Source of the values: publication PMC7842900.
